{"sequences": {"note": "Chains of the proteins cited; added tags and fusions are not shown. Lines headed by an entry give the natural chain unless they say otherwise; changes in a name come on top.", "UniProt O60287": "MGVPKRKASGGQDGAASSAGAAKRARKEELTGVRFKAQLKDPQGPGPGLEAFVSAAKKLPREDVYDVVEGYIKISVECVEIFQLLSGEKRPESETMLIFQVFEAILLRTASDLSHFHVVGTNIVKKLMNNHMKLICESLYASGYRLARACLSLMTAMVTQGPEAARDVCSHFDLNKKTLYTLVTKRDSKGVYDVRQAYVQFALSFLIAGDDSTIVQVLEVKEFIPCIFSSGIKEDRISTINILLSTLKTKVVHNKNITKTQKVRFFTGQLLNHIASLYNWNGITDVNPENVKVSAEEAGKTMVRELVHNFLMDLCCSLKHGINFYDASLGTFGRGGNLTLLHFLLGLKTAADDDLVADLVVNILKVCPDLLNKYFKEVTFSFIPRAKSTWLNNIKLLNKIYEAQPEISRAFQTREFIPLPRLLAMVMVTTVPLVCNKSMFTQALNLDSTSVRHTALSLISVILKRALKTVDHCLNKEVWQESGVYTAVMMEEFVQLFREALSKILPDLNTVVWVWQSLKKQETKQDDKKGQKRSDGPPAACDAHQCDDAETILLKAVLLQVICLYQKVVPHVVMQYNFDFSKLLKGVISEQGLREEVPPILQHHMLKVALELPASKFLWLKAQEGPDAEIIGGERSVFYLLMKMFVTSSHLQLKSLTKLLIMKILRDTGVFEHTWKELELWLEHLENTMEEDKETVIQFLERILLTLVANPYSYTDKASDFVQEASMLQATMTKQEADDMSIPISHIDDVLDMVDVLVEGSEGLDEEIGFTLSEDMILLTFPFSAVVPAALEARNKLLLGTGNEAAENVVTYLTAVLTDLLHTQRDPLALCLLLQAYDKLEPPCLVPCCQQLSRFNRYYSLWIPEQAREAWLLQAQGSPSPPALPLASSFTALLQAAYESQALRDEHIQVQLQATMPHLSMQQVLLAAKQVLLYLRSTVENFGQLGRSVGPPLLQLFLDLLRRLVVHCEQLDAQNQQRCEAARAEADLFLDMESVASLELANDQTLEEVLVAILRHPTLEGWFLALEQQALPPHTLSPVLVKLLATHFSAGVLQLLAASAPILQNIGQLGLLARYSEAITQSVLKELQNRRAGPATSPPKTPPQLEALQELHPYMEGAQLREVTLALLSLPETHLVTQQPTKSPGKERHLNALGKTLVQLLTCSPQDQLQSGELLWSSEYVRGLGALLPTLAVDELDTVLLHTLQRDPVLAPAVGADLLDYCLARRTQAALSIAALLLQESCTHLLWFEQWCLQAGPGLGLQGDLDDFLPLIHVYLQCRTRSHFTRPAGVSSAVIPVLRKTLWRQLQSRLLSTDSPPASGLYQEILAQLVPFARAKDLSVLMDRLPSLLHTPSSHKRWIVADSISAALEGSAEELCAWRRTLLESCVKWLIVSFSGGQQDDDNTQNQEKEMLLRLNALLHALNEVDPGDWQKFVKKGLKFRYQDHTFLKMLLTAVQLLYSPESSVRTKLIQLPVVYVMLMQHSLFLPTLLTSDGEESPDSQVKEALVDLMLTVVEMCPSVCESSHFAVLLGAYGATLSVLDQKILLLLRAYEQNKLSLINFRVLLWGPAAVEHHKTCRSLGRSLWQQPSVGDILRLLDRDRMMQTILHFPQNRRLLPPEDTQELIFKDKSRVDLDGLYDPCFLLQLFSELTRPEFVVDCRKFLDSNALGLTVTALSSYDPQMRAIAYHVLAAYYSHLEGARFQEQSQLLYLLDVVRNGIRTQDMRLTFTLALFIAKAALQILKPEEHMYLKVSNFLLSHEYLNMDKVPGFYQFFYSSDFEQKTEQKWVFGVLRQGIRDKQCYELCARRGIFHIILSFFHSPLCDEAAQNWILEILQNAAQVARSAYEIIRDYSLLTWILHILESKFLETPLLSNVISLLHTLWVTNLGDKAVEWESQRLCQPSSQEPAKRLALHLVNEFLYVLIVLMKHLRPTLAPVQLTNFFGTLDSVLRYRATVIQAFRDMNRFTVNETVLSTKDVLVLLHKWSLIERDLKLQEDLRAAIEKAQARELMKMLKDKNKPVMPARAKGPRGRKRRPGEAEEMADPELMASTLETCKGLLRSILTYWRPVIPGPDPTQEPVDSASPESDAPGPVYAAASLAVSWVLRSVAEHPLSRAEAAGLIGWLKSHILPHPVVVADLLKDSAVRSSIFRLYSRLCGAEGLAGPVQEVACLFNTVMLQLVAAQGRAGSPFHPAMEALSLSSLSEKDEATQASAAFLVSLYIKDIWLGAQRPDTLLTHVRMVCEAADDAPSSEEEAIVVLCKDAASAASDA", "UniProt Q71U36, whole entry": "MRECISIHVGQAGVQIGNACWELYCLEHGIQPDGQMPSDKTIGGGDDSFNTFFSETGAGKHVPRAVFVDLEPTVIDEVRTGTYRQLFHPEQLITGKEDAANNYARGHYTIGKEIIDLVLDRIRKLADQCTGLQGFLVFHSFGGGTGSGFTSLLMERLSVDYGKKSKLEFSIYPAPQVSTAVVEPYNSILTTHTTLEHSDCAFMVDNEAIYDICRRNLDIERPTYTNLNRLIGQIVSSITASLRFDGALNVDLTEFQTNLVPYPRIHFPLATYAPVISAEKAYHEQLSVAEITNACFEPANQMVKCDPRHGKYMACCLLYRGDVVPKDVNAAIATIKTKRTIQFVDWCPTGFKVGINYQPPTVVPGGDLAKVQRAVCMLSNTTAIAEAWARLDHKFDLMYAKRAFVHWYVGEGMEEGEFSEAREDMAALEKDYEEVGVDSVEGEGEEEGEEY", "UniProt Q9NVA1": "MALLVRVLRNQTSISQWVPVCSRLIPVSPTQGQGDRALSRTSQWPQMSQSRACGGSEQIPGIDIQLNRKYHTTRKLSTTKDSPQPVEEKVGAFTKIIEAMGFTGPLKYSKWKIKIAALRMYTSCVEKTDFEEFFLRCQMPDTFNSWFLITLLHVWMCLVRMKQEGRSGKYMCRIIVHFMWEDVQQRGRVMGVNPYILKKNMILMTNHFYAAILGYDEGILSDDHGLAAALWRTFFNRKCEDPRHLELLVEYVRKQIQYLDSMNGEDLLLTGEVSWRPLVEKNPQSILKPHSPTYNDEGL", "UniProt Q9BZX2": "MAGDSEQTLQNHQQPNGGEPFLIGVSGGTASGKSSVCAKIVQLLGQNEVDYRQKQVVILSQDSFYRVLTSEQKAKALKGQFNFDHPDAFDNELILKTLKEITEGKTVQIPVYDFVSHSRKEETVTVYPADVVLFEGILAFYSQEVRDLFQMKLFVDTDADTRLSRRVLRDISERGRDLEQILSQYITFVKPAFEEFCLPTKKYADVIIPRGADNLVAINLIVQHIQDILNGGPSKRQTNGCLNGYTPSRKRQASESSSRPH", "UniProt Q16762": "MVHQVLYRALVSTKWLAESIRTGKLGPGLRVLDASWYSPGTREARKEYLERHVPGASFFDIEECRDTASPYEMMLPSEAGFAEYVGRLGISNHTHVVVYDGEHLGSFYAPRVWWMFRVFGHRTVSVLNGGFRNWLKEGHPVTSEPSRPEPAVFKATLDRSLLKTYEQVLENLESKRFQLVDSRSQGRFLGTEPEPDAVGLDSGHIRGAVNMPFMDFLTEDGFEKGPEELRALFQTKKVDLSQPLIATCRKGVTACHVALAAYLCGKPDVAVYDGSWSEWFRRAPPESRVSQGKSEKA", "UniProt P10599": "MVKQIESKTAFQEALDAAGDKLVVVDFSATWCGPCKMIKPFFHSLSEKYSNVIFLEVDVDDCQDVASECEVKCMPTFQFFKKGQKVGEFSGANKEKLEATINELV", "UniProt P07437, whole entry": "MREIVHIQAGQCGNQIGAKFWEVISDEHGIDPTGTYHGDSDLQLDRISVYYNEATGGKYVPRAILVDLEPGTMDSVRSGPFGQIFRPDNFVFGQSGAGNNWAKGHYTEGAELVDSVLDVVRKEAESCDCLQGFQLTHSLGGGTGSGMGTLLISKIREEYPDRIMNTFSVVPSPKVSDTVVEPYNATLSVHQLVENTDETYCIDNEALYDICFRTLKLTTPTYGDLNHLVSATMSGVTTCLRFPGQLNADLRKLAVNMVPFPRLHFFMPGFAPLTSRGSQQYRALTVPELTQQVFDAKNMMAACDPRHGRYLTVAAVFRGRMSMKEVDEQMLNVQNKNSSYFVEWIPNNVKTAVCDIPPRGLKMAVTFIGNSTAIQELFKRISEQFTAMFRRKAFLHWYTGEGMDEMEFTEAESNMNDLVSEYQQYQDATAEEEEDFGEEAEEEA", "UniProt Q14142": "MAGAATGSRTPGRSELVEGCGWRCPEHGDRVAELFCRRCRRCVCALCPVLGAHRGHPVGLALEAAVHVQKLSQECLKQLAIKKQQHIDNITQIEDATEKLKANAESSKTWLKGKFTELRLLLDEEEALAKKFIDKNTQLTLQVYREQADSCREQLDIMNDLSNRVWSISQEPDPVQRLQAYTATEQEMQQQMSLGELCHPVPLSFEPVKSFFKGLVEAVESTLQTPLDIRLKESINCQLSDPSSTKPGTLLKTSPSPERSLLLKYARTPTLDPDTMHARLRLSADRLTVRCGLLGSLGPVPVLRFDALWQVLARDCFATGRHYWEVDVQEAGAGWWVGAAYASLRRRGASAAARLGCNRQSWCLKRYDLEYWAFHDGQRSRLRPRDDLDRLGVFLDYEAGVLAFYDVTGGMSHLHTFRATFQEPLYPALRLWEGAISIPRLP", "UniProt Q9H3N1": "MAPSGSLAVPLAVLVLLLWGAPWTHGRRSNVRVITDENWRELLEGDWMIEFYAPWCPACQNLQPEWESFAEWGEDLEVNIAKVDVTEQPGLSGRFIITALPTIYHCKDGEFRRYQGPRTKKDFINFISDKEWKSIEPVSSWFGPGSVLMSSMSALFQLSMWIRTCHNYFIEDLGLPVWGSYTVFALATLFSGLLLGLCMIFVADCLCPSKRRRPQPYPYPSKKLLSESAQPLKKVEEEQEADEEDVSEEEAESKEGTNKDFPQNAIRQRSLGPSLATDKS", "UniProt Q9BQ50": "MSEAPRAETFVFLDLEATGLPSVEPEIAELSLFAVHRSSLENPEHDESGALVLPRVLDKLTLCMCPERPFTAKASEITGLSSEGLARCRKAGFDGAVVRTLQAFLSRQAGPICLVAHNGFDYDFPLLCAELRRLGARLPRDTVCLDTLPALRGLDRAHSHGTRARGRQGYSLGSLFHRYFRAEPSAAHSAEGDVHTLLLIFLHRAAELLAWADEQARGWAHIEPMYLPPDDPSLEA", "UniProt Q12792, whole entry": "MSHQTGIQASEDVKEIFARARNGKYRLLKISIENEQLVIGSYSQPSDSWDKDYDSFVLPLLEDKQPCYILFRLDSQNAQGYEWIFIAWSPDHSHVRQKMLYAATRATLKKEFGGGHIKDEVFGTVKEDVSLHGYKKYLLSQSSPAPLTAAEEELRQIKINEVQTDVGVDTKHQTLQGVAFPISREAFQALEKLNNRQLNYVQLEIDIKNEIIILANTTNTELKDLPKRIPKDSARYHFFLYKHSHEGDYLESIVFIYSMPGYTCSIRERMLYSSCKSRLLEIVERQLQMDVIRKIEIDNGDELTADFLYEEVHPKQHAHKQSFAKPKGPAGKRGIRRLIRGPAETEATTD", "UniProt P43897": "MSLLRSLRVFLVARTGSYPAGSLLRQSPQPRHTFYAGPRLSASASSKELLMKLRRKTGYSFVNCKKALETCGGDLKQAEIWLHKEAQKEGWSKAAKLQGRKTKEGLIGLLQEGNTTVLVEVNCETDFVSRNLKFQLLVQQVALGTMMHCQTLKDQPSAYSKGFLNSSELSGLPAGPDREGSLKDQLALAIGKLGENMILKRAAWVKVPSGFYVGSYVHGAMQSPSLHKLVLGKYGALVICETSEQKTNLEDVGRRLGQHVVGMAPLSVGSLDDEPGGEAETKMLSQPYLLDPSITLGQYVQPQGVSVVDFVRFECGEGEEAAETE", "UniProt O95900": "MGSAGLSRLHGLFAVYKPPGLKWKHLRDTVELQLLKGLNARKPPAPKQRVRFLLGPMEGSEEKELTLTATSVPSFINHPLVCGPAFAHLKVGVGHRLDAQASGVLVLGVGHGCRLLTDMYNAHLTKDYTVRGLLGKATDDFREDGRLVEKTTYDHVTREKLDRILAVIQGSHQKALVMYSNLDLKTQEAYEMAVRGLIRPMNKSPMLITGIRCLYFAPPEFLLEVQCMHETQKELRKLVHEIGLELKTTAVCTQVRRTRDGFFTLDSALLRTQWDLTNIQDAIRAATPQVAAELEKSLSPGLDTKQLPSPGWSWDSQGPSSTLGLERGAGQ", "UniProt Q9NZ43": "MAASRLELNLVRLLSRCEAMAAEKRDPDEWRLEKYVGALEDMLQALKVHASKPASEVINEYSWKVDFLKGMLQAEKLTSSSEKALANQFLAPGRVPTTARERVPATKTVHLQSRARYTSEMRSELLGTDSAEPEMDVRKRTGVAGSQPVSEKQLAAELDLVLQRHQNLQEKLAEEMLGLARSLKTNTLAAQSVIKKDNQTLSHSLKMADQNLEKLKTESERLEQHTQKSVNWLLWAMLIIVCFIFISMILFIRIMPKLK", "UniProt P15374": "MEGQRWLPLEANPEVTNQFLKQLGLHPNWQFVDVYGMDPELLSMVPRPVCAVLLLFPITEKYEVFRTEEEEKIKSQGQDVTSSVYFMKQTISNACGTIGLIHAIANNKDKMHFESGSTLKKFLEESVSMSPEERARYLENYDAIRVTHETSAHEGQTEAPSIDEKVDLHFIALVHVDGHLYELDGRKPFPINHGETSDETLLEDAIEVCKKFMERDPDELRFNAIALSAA"}, "source": "the supplement of paper PMC7666118", "note": "This is one part of the list."}
{"compound": "COc1ccc(Cn2ccc3ccc(C(=O)NO)cc32)cc1", "test": "dose-dependent thermal stabilisation call (2D-TPP, DLPTP, 10% FDR) (binary (1 = stabilised)); higher = stabilised by the compound", "conditions": "system: HL-60 intact cells; concentration range 0.04-10 µM"}
{"target": "URB1 (UniProt O60287)", "dose-dependent thermal stabilisation call": "inactive: 0"}
{"target": "TUBA1A (UniProt Q71U36)", "dose-dependent thermal stabilisation call": "inactive: 0"}
{"target": "UQCC (UniProt Q9NVA1)", "dose-dependent thermal stabilisation call": "inactive: 0"}
{"target": "UFSP2 (UniProt Q9NUQ7)", "dose-dependent thermal stabilisation call": "inactive: 0"}
{"target": "UCK2 (UniProt Q9BZX2)", "dose-dependent thermal stabilisation call": "inactive: 0"}
{"target": "USP3 (UniProt Q9Y6I4)", "dose-dependent thermal stabilisation call": "inactive: 0"}
{"target": "UBXN6 (UniProt Q9BZV1)", "dose-dependent thermal stabilisation call": "inactive: 0"}
{"target": "TRPV2 (UniProt Q9Y5S1)", "dose-dependent thermal stabilisation call": "inactive: 0"}
{"target": "TST (UniProt Q16762)", "dose-dependent thermal stabilisation call": "inactive: 0"}
{"target": "TXN (UniProt P10599)", "dose-dependent thermal stabilisation call": "inactive: 0"}
{"target": "UBA1 (UniProt P22314)", "dose-dependent thermal stabilisation call": "inactive: 0"}
{"target": "TUBB (UniProt P07437)", "dose-dependent thermal stabilisation call": "active: 1"}
{"target": "TRIM14 (UniProt Q14142)", "dose-dependent thermal stabilisation call": "inactive: 0"}
{"target": "TXNDC1 (UniProt Q9H3N1)", "dose-dependent thermal stabilisation call": "inactive: 0"}
{"target": "TRRAP (UniProt Q9Y4A5)", "dose-dependent thermal stabilisation call": "inactive: 0"}
{"target": "UGP2 (UniProt Q16851)", "dose-dependent thermal stabilisation call": "inactive: 0"}
{"target": "TREX2 (UniProt Q9BQ50)", "dose-dependent thermal stabilisation call": "inactive: 0"}
{"target": "TTN (UniProt Q8WZ42)", "dose-dependent thermal stabilisation call": "inactive: 0"}
{"target": "TWF1 (UniProt Q12792)", "dose-dependent thermal stabilisation call": "inactive: 0"}
{"target": "TTC37 (UniProt Q6PGP7)", "dose-dependent thermal stabilisation call": "inactive: 0"}
{"target": "TSFM (UniProt P43897)", "dose-dependent thermal stabilisation call": "inactive: 0"}
{"target": "TRUB2 (UniProt O95900)", "dose-dependent thermal stabilisation call": "inactive: 0"}
{"target": "USE1 (UniProt Q9NZ43)", "dose-dependent thermal stabilisation call": "inactive: 0"}
{"target": "TXNRD3 (UniProt Q86VQ6)", "dose-dependent thermal stabilisation call": "inactive: 0"}
{"target": "USP28 (UniProt Q96RU2)", "dose-dependent thermal stabilisation call": "inactive: 0"}
{"target": "UCHL3 (UniProt P15374)", "dose-dependent thermal stabilisation call": "inactive: 0"}
{"target": "UHRF1 (UniProt Q96T88)", "dose-dependent thermal stabilisation call": "inactive: 0"}
